Chains of the proteins cited; added tags and fusions are not shown. Lines headed by an entry give the natural chain unless they say otherwise; changes in a name come on top.
UniProt P39938: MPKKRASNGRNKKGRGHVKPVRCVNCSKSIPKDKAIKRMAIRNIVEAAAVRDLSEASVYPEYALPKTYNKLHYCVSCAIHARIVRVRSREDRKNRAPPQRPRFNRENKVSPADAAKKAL

In PMC4161973:

Key:
[1] = target: T1, GST-Kap104 (S. cerevisiae) (UniProt P38217); experiment: pull-down; GST-importins immobilised on Glutathione Sepharose, incubated with E. coli lysate containing ∼4 µM eS26^FLAG (or its mutants, or GFP-eS26) in PBSKMT with competing E. coli lysates for 1 hr at 4°C; Coomassie Blue staining or Western; only the target purified
T1 sequence: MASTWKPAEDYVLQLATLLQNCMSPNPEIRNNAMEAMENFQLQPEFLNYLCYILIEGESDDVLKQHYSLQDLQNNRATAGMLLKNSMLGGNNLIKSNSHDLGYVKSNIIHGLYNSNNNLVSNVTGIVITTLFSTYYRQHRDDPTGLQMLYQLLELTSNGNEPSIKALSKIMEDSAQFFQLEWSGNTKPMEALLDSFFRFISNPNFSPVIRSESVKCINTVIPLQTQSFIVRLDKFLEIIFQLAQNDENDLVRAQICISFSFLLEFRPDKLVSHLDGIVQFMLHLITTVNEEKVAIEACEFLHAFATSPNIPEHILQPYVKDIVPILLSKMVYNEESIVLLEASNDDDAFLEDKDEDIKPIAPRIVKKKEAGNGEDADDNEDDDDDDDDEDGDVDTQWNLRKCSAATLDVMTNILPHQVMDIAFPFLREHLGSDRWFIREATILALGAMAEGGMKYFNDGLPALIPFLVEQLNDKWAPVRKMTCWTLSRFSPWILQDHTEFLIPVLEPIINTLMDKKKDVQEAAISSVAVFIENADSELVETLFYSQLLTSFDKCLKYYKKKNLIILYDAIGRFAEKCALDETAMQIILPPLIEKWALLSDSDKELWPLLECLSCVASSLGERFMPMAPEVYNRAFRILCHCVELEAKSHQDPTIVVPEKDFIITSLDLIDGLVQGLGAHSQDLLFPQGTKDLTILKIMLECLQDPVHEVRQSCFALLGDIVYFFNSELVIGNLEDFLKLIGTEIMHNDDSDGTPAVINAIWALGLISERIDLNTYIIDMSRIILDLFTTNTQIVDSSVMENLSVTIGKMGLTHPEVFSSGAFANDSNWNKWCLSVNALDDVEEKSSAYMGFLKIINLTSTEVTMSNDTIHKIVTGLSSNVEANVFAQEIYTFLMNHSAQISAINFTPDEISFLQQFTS

[2] = target: T2, GST-tagged Nmd5 (S. cerevisiae) (UniProt P46970); experiment: as above
T2 sequence: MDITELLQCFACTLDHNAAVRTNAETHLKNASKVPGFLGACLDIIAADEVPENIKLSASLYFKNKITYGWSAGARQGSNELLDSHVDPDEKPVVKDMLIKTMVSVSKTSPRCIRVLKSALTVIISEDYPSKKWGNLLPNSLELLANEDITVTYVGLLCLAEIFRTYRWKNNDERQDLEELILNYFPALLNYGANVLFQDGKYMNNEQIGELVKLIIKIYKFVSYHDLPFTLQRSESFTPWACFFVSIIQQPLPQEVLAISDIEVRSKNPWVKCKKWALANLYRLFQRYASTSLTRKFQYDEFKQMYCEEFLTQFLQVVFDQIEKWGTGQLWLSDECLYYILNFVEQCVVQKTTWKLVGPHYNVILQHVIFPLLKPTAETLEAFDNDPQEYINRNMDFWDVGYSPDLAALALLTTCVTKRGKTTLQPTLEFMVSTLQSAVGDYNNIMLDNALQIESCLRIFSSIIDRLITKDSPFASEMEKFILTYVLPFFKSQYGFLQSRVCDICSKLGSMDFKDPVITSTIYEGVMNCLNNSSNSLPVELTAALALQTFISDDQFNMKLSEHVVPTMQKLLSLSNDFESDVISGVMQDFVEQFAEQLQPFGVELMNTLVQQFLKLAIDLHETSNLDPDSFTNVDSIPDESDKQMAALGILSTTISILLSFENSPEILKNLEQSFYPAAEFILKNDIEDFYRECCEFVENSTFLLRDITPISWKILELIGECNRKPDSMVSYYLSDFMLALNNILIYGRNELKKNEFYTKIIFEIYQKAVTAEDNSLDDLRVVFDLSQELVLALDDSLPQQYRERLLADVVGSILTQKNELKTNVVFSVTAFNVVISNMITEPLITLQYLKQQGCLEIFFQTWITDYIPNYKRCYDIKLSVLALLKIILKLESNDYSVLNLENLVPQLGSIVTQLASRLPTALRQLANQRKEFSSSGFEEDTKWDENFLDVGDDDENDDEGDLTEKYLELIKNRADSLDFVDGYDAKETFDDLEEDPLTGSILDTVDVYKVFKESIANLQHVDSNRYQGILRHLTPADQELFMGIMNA

With eS26^FLAG (from UniProt P39938) as the substance, how does the binding [1] read?
Its binding is “binds”.

And the binding [2]?
The binding was “binds weakly”.

No constants are given. Whether binding was seen depends on the method and setting. In cells and extracts the contact can be indirect. A result given as binding can be weak or reduced; the word gives no strength. Sequences can lack the tags named with a protein.
